The values that follow come from US20220381787A1, “NOVEL LOX-1 ANTIBODY COMPOSITIONS, LOX1 NEUTRALIZATION ASSAY AND METHODS OF TREATMENT USING SAME” (The Wistar Institute of Anatomy and Biology, priority 2019, published 2022).

The target of assay [1] is recombinant human LOX-1 (hLOX-1) protein, full length (human) (UniProt P78380). Description: Western blot, native recombinant hLOX-1.
Assay [2] shares this target. Description: modified ELISA on recombinant hLOX-1, avidity by 4M urea wash.
Assay [3] has the same target. Kind of assay: avidity ELISA (4M urea) and Western blot on recombinant hLOX-1.
The target of assay [4] is human LOX-1 expressed on the surface of plasmid hLOX-1 transfected 293T cells (human) (UniProt P78380). Description: flow cytometry, 1 ug/ml antibody on hLOX-1 transfected 293T cells, FITC goat anti-human IgG.

Results are given in words; binding and its absence hold for the method and conditions named. Some entries that bind do so weakly or less than the wild type.

B1: anti-hLOX-1 monoclonal antibody 12D9 (hybridoma) (antibody, IgM, V domains shown)
VH: QIQLVQSGPELKKPGETVKISCKASGYTFTNYGMNWVKQTPGKGLKWMGWINTYTGEPTYTDDFKGRFAFSLETSASTASLQIINLKNEDTATYFCARGGDFYAMDYWGQGTSVTVSS
VL: NIVMTQSPKSMSMSVGERVTLSCKASENVGTYVSWYQQKPEQSPKLVIFGASNRNTGVPDRFTGSGFATDFTLTISSVQAEDLGDYHCGQSSNYPYTFGGGTKLEIK
For B1, the binding entry in assay [1], in assay [2] and in assay [3] was “binds” each time.

B2: anti-hLOX-1 monoclonal antibody 6A10 (hybridoma) (antibody, IgM, V domains shown)
VH: EVQLQQSGPELVKPGASVKISCKASGYSFTGYYMHWVKQSHVKSLEWIGRINPYNGATSYNQNFKDKASLTVDKSSSTAYMELHSLTSEDSAVYYCAPDVAYWGQGTLVTVSA
VL: DIKMTQSPSSMYASLGERVTITCKASQDINSYLSWFQQKPGKSPKTLIYRANRLVDGVPSRFSGSGSGQDYSLTISSLEYEDMGIYYCLQYDEFPPWTFGGGTKLEIK
As to B2, the binding entry in assay [1], in assay [2] and in assay [3] was “binds” each time.

B3: recombinantly expressed anti-LOX-1 (IgG1) antibody, clone 6A10 (antibody, V domains shown)
VH: B2 VH
VL: B2 VL
For B3, the binding result in assay [4] was “binds”.
